# Experimental data published in PMC9788671.
# Protein sequences, listed by entry. Tags and fused reporters are not part of them.
# UniProt Q9NZV8: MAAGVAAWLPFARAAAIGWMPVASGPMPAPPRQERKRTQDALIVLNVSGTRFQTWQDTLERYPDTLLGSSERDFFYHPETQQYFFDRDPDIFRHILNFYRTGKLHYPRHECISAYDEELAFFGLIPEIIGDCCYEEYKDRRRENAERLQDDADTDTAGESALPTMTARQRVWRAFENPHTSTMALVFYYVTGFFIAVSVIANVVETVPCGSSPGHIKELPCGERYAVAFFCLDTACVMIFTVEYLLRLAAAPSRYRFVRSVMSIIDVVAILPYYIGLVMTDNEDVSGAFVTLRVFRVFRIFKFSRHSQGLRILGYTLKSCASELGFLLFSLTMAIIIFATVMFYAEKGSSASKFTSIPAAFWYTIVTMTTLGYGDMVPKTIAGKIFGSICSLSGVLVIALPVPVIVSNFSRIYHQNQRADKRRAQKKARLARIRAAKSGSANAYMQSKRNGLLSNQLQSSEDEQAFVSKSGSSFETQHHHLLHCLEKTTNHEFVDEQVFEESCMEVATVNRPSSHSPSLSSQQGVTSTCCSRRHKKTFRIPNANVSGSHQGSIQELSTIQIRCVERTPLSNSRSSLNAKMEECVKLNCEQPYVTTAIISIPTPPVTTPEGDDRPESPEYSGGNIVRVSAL
# These are yes or no findings as the source states them, for the method shown. Binding seen in cells or lysates may run through a third protein. A yes stands for co-enrichment or nearness to the bait. Other partners may have been found.
# Molecular target: TAP-Kv4.2 (human) (UniProt Q9NZV8)
# Test: affinity purification with mass spectrometry; TAP-Kv4.2 expressed by lentivirus in rat hippocampal neurons, harvested at DIV14; strong lysis buffer (1% Triton X-100, 0.5% deoxycholate in PBS, pH 7.4); streptavidin resin, then calmodulin resin; gel cut into high and low molecular weight fragments; no MS of the control sample
row,binding,Binder
1,binds,"Golga3 (protein, UniProt D3ZLD5 1-1487) MDGASAKQDGLWENKSSSDISSCPEASLETVGSLAQLPDQQDTAQDGSVEVNRVFKEEGSPDRSSQVPICQNGQIPDLQLSLDPTTSPVGPDASTGVDGFHDNLRKSQGTSAEGSVRKEALQSLRLSLPMQETQLCSTASSLPLEKEEQVRLQARKRLEEQLMQYRVKRHRERSSQPATKMKLFSTLDPELMLNPENLPRASAVAVTKEYSFLRTSVPRGPKVGSLGLLAHSKEKKNSKSSKIRSLADYRTEDPSDSGGLGSTADAVGSSLKQSRSSTSVVSEVSPSCETDNRAESASLAGDSVSEADGNESDSSSHSSFSARGACAVLGNVGTPGAAYVVDGQEISAEALGQFPSIKDVLQAAAAQHQDQNQEANGEVQSRRDSICSSVSMESSFAEPQEELLQILKDKRRLEGQVEALSLEASQALQEKAELQAQLAALSTRLQAQVEHSHSSQQKQDSLSSEVDTLKQSCWDLERAMTDLQNMLEAKNASLASSNNDLQVAEEQYQRLMAKVEAMQRNILSKDNTVHDLRQQMTALQSQLQQVQLERTTLTSKLQASQAEITSLQQARQWYQQQLALAQEARVRLQGEMAHIQVGQMTQAGLLEHLKLENVSLSHQLTETQHRSIKEKERIAVQLQSIEADMLDQEAAFVQIREAKTMVEEDLQRKLEEFEGEREQLQKVADAAASLEQQLEQVKLTLFQRDQQLAALQQEHLDVIKQLTSTQEALQAKGQSLDDLQTRYDELQARLEELQREADSREDAIHFLQNEKIVLEVALHSARSDKEELDRGARRLEEDTEETSGLLEQLRQDVAVKSNQVEHLQQETATLRKQMQKVKEQFLQQKVMVEAYRRDAASKDQLINELKATKKRLDSEMKELRQELIKLHGEKKTVEVEHSRLQKDMSLVHQQMAELEGHLQSVQKERDEMEIHLQSLKFDKEQMIALTEANETLKKQIEELQQEAKKAITEQKQKMKRLGSDLTSAQKEMKTKHKAYENAVSILSRRLQEALANKEATDAELNQLRAQSTGGSSDPALHEKIHALEVELQNVGQSKILLEKELQEVITMTSQELEESREKVLELEDELQESRGFRRKIKRLEESNKKLALELEHERGKLTGLGQSNAALREHNSILETALAKREADLVQLNLQVQAVLQRKEEEDRQMKQLVQALQISLEKEKTEVSSLKEQMAAARVEAGHNRRHFKAATLELSEVKKELQAKEHLVQTLQAEVDELQIQEGKHSQEIAQFQTELAEARTQLQLLQKKLEEQRSQQPTGSQEMEDLKWELDQKEREIQSLKQQLDLTEHQGKKELEGTQQTLQTIKSELETVQEDLSETQKDKFMLQAKVSELKNNMKTLLQQNQQLKLDLRRGAAKKKEPKGESSSSSPATPIKIPDCPVPASLLEELLRPPPAVSKEPLKNLNSCLQQLKQEMDSLQRQMEEHTITVHESLSSWAQVEAAPAEHAHARGDTKVHNQNSVPGEGLGQ"
2,binds,"Dhx30 (protein, UniProt Q5BJS0 1-1194) MFTLDSFRKDRTQHRQRQCKLPPPRLPPMCVNPAPGGTISRASRDLLKEFPQPKNLLNSVIGRALGISHAKDKLVYVHTNGPKKKKVTLHIKWPKSVEVEGYGSKKIDAERQAAAAACQLFKGWGLLGPRNELFDAAKYRVLADRFGSPADSWWRPEPTMPPTSWRQLNPENIRPAGTGGLSRSLGREEEEDEEEELEEGTIDVTEFLSMTQQDSHNPLRDSRGGSFEMTDDDSAIRALTQFPLPKNLLAKVIQIATSSSTAKNLMQFHTVGTKTKLATLTLLWPCPMTFVAKGRRKAEAENKAAALACKKLKSLGLVDRNNEPLTHAMYNLASLRELGETQRRPCTIQVPEPILRKIEAFLSHYPVDSSWISPELRLQSDDILPLGKDSGPLSDPITGKPYMPLSEAEEVRLSQSLLELWRRRGPIWQEAPQLPVDPHRDTILSAIEQHPVVVISGDTGCGKTTRIPQLLLERYVTEGRGARCNVIITQPRRISAVSVAQRVSHELGPSLRRNVGFQVRLESKPPARGGALLFCTVGILLRKLQSNPSLEGVSHVIVDEVHERDVNTDFLLILLKGLQRLNPALRLVLMSATGDNERFSRYFGGCPVIKVPGFMYPVKEHYLEDILAKLGKHQYPHRHRHHESEDECALDLDLVTDLVLHIDARGEPGGILCFLPGWQEIKGVQQRLQEALGMHESKYLILPVHSNIPMMDQKAIFQQPPLGVRKIVLATNIAETSITVNDIVHVVDSGLHKEERYDLKTKVSCLETVWVSRANVIQRRGRAGRCQSGFAYHLFPRSRLEKMVPFQVPEILRTPLENLVLQAKIHMPEKTAVEFLSKAVDSPNIKAVDEAVILLQEIGVLDQREYLTTLGQRLAHISTDPRLAKAIVLAAIFRCLHPLLVVVSCLTRDPFSSSLQNRAEVDKVKALLSHDSGSDHLAFVRAVAGWEEVLRWQDRTSRENYLEENLLYAPSLRFIHGLIKQFSENIYEAFLVGKPSDCTLPSAQCNEYSEEEELVKGVLMAGLYPNLIQVRQGKVTRQGKFKPNSVTYRTKSGNILLHKSTINREATRLRSRWLTYFMAVKSNGSVFVRDSSQVHPLAVLLLTDGDVHIRDDGRRATISLSDSDLLRLEGDSRTVRLLRELRRALGRMVERSLRSELAALPLSVQQEHGQLLALLAELLRGPCGSFDVRKTADD"

# The remaining lines, values behind:
row,Binder,binding
1,"Syngap1 (protein, UniProt Q9QUH6 1-1308) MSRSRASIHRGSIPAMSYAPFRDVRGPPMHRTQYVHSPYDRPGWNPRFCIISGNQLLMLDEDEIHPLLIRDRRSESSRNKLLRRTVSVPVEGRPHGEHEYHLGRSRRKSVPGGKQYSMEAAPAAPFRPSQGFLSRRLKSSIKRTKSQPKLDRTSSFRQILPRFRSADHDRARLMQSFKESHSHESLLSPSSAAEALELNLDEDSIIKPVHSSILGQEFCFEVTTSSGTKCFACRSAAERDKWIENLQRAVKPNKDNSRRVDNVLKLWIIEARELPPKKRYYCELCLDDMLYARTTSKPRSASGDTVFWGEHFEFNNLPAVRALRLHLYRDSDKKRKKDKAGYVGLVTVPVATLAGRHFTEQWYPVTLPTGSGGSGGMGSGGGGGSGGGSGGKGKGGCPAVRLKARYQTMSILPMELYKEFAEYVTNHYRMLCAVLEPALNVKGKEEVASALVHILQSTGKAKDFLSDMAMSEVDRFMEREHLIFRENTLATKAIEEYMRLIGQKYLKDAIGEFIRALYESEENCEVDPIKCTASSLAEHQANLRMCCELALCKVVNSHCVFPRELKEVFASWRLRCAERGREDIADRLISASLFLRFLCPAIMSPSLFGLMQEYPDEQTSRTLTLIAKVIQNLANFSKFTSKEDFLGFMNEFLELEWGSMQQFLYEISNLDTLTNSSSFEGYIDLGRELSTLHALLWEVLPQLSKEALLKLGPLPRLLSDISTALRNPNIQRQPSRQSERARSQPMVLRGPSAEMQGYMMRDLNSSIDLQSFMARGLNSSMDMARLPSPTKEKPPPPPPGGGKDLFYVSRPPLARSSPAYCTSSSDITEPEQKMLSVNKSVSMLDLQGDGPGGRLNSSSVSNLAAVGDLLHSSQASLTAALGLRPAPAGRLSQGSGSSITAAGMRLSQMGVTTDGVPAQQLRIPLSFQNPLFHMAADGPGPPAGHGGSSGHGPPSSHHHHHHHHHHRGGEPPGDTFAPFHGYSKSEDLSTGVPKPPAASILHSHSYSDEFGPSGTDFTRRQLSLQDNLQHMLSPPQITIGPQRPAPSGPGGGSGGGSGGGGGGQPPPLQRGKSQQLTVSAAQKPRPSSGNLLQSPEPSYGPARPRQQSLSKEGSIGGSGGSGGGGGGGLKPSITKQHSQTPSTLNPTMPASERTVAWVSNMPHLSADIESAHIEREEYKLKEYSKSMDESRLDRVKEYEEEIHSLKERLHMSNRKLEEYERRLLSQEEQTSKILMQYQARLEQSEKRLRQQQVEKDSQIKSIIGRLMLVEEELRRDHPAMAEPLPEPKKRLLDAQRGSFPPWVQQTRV",binds
2,"Gapvd1 (protein, UniProt A0A8I5ZT12 1-1484) MVKLDIHTLAHHLKQERLYVSSEKQLIQRLNADVLKTAEKLYRTAWIAKQQRINLDRLIITSAEASPAECCQHAKILEDTQFVDGYKQLGFQETAYGEFLSRLRENPRLIASSLVAGEKLNQENTQSVIYTVFTSLYGNCIMQEDESYLLQVLRYLIEFELKESDNPRRLLRRGTCAFSILFKLFSEGLFSAKLFLTATLHEPIMQLLVEDEDHLETDPNKLIERFSPAQQEKLFGEKGSDRFRQKVQEMVDSNEAKLVALVNKFIGYLKQNTYCFPHSLRWIVSQMYKTLSCVDRLEVGEVRAMCTDLLLACFICPAVVNPEQYGIISDAPINEVARFNLMQVGRLLQQLAMTGTEEGDPRTKNSLGKFDKGCVAAFLDVVIGGRAVETPPMSSVNLLEGLSRTVVYISYSQLITLVNFMKSVMSGDQLKEDRMALDNLLANLPQAKPGKSSSLDMTPYSTPQMSPATTPANKKNRLPIGQQLAAITAWDSSATNLTAHIPLVTPFATRSRSRSNMLMDLHMDHEGSSQETIQEVQPEEVLVISLGTGPQLTPGMMSENEVLNMQLSDGGQGDVPVDENKLHGKPDKTLRFSLCSDNLEGISEGPSNRSNSVSSLDLEGESVSELGAGPSGSNGVEALQLLEHEQATTQDNLDDKLRKFEIRDMMGLTDDRDISETVSETWSTDVLGSDFDPNVDEDRLQEIAGAAAENVLGSLLCLPGSGSVLLDPCTGSTISETTSEAWSVEVLPSDSEAPDLKQEERLQELESCSGLGSTSDDTDVREVSSRPSTPGLSVVSGISATSEDIPNKIEDLRSECSSDFGGKDSVTSPDVDDIAHGAHQLTSPPSQSESLLAMFDPLSSHEGASAVVRPKVHYARPSHPPPDPPILEGAVGGNEARLPNFGSHVLTAAEMEAFRQRHSYPERLVRSRSSDIVSCVRRPMSDPSWNRRPGNEELPPAAATGATSLVAAPHSSSSSPSKDSSRGETEERKDSDDERSDRSRPWWRKRFVSAMPKAPIPFRKKEKQEKDKDDLGPDRFSTLTDEPSPRLSAQAQVAEDILDKYRNAIKRTSPSEGALANDESTEVMGDGESAHDSPREELQNMSADDLPDSASQAAHPQDSALSYRDVKKKLRLALCSADSVAFPMLTHSTRNGLPEHTDPEDNEIVCFLKVQIAEAINLQDKSLMAQLQETMRCVCRFDNRTCRKLLASIAEDYRKRAPYIAYLTRCRQGLQTTQAHLERLLQRVLRDKEVANRYFTTVCVRLLLESKEKKIREFIQDFQKLTAADDKTAQVEDFLQFLYGAMAQDVIWQNASEEQLQDAQLAIERSVMNRIFKLAFYPNQDGDILRDQVLHEHIQRLSKVVTANHRALQIPEVYLREAPWPSAQSEIRTISAYKTPRDKVQCILRMCSTIMNLLSLANEDSVPGADDFVPVLVFVLIKANPPCLLSTVQYISSFYASCLSGEESYWWMQFTAAVEFIKTIDDRK",binds
